Experimental data reported in the supplement of paper PMC12067093, “Discovery and optimisation of a covalent ligand for TRIM25 and its application to targeted protein ubiquitination” (Chemical Science, 2025).
This is one part of the list.

The chains behind the UniProt entries cited, without tags or fusion partners. Where a name states a change or a piece, a line headed by the entry shows the natural chain unless it says otherwise.
UniProt P55060: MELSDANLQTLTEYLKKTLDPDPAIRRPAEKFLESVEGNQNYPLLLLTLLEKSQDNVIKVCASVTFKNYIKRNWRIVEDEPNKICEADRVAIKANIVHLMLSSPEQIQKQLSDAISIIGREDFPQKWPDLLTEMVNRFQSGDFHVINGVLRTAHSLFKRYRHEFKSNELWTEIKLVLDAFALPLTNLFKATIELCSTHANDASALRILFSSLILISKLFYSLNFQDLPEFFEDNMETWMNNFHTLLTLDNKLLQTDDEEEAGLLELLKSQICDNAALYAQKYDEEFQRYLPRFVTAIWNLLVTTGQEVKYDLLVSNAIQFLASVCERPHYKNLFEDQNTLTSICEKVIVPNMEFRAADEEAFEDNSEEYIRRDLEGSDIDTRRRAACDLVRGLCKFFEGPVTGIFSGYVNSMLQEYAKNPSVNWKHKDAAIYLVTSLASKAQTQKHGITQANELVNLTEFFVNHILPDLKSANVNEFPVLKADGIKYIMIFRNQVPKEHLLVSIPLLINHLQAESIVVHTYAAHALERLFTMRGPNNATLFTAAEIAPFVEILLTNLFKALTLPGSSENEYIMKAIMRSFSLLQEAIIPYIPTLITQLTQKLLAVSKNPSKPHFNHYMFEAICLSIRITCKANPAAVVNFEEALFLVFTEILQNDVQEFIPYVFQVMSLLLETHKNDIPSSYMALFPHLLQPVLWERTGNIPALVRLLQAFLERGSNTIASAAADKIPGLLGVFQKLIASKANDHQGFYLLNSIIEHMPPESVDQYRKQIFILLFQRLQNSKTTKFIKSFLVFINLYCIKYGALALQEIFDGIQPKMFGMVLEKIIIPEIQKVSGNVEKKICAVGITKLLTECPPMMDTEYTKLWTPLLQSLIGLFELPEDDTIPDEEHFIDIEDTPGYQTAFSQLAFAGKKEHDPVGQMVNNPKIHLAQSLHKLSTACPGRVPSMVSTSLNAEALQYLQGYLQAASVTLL
UniProt Q9UKF6: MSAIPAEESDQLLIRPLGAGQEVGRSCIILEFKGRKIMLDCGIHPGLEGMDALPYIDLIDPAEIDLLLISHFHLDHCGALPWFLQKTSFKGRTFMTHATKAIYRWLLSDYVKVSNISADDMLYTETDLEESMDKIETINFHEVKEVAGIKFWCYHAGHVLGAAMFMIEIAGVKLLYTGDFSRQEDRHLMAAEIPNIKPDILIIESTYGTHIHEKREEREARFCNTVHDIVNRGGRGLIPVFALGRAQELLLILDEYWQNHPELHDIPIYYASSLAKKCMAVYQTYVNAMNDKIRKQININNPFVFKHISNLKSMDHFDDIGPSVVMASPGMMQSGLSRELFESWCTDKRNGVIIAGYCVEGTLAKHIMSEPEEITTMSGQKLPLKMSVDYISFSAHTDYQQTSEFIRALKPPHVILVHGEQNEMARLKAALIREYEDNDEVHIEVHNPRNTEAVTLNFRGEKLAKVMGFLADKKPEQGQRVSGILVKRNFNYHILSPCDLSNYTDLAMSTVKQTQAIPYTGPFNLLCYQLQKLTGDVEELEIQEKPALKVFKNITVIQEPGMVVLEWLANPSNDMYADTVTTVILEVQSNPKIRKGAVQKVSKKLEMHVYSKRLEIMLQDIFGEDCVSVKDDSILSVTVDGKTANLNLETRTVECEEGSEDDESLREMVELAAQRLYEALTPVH
UniProt O95639, whole entry, looked up: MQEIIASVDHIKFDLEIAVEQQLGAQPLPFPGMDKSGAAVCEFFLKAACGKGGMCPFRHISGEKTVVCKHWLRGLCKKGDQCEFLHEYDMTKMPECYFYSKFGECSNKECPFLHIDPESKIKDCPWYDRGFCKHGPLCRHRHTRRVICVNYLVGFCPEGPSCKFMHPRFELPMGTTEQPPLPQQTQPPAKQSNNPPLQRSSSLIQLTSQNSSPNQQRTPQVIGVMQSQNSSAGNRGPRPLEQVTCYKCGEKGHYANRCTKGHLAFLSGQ
UniProt O75718: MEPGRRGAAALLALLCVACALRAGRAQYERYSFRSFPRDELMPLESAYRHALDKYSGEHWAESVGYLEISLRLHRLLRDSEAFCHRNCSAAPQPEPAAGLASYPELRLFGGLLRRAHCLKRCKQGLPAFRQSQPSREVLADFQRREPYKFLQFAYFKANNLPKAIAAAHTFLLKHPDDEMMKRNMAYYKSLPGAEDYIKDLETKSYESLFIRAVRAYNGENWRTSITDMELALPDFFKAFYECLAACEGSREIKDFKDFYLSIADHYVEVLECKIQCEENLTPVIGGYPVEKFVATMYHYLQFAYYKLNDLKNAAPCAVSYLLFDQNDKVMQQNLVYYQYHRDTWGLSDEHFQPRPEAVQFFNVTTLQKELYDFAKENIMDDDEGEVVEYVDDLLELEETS
UniProt Q05048: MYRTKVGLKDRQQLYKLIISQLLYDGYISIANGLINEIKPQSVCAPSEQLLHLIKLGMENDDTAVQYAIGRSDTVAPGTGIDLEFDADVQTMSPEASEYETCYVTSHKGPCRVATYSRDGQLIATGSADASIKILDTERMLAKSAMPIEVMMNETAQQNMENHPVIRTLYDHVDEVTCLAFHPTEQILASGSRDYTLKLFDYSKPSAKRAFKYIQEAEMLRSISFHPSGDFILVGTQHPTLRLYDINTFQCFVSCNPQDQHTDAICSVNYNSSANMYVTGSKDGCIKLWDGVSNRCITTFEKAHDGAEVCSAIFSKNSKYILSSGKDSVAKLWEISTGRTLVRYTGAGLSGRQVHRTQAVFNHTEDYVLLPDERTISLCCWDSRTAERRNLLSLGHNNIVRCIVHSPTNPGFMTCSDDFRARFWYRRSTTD
UniProt O75131: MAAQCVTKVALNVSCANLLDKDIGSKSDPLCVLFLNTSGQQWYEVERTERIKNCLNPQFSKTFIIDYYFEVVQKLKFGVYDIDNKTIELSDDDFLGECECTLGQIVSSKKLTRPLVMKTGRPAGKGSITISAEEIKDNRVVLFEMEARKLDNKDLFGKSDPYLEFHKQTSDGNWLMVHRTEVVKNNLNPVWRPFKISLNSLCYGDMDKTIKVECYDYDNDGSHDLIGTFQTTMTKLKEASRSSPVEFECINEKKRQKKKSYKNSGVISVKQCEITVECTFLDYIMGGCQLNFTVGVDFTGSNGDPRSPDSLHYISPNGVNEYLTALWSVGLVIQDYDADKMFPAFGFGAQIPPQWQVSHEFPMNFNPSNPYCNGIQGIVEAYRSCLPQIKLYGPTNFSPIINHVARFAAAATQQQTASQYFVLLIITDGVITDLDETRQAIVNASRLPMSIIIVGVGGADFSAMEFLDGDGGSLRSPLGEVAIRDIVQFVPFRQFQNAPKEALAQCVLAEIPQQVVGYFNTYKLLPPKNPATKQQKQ
UniProt Q16630, whole entry, looked up: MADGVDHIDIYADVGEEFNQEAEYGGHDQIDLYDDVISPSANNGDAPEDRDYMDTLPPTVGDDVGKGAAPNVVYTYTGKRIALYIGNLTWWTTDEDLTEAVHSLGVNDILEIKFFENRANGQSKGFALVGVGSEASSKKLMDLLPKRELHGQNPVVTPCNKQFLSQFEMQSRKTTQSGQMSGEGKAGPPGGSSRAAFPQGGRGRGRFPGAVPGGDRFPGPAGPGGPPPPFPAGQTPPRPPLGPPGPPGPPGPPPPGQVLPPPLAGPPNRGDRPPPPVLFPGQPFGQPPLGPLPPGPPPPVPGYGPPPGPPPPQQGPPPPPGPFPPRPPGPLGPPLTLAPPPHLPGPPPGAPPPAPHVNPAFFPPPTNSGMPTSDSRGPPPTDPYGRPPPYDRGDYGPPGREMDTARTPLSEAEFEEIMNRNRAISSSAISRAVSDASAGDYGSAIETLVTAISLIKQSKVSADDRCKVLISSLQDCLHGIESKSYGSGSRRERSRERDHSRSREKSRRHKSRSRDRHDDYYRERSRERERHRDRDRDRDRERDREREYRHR
UniProt O75976: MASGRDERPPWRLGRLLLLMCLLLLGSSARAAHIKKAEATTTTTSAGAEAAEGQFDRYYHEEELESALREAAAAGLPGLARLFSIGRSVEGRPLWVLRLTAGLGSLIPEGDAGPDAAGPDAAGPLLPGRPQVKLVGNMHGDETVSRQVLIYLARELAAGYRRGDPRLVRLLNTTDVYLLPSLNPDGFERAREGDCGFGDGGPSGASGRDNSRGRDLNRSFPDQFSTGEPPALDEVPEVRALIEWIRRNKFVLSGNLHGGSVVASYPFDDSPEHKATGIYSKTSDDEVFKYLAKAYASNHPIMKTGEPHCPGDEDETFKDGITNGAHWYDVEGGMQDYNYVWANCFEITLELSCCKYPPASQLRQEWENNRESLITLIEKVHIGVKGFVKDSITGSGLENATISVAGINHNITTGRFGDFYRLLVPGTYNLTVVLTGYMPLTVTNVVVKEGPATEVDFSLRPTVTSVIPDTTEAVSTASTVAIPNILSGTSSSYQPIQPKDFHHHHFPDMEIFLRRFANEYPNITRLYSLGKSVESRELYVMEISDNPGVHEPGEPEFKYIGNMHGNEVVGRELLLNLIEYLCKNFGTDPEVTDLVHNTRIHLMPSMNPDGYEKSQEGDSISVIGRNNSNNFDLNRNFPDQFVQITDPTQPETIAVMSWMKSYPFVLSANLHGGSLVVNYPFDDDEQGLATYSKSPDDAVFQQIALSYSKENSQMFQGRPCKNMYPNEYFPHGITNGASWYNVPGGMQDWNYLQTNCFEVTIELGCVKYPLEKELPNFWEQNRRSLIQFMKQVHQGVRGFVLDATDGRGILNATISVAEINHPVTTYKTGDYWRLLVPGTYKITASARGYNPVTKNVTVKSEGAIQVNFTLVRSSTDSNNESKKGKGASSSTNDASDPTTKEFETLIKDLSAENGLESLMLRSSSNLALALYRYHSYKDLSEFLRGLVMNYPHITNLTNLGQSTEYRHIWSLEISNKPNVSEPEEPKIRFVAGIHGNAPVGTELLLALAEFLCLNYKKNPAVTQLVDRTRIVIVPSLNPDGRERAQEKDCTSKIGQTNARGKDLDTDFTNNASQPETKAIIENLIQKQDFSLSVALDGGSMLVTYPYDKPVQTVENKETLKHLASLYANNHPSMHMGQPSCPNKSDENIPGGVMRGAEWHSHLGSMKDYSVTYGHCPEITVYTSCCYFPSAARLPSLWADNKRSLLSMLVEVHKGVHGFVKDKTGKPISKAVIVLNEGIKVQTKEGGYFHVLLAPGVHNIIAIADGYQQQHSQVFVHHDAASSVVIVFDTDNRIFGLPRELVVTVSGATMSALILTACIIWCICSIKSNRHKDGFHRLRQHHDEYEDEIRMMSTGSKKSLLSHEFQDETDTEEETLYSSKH
UniProt P50238: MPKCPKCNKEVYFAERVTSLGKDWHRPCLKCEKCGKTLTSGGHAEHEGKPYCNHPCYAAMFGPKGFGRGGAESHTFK
UniProt Q9BR76, whole entry, looked up: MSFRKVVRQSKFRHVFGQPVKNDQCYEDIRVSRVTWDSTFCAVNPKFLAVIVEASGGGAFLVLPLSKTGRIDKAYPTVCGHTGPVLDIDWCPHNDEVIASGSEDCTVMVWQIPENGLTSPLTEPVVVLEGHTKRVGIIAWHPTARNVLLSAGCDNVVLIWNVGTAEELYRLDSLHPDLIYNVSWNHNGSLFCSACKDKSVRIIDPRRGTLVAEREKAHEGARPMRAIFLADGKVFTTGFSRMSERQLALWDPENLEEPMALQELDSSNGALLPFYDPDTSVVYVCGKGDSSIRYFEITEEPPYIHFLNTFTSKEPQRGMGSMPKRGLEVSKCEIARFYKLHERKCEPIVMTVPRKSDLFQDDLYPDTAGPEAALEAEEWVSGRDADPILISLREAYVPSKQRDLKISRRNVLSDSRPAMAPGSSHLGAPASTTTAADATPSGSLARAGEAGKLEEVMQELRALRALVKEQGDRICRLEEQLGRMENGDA
UniProt O75534: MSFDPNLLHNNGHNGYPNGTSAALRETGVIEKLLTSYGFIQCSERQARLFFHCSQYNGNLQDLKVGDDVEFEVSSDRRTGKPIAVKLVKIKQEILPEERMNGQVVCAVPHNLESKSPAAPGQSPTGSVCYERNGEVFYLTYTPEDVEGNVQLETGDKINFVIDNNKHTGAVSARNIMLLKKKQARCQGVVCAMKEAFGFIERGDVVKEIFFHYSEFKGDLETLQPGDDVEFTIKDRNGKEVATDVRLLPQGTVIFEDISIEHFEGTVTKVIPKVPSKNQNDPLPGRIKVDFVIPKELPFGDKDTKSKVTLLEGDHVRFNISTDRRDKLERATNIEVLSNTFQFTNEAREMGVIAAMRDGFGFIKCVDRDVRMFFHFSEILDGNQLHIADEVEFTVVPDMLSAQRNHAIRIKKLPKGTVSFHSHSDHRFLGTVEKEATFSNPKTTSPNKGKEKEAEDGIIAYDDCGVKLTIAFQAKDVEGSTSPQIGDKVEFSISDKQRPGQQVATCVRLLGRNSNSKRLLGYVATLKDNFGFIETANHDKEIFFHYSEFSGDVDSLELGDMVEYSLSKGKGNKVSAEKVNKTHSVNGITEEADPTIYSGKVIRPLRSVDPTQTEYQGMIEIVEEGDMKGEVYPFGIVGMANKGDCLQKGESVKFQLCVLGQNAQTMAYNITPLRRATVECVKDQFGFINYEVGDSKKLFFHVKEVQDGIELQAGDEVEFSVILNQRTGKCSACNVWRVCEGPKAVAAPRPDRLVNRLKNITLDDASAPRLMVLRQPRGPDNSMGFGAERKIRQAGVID

Compound: Cc1cc(ccc1-c1ccccc1)C(=O)N1CCCN(CC1)C(=O)CCl [compound 10]
Assay: probe-labelled cysteine peptide fold change vs DMSO (competition) (log2 fold change); higher = less target engagement (more negative = stronger competition)
Conditions: THP-1, incubation time: 4 h
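Also: competitive profiling in live THP-1 cells: cysteine peptides tagged with an iodoacetamide desthiobiotin (IA-DTB) probe, intensity after compound treatment relative to DMSO-treated cells.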

| Target | probe-labelled cysteine peptide fold change (10 µM) | probe-labelled cysteine peptide fold change (50 µM) |
| --- | --- | --- |
| CSK_P41240_422_NCWHLDAAMRPSFLQLR (UniProt P41240) | -0.00143 | -0.153 |
| CRYZL1_O95825_177_VISTACSLEDK (UniProt O95825) | 0.171 | 0.171 |
| CPT1A_P50416_586_FCLTYEASMTR (UniProt P50416) | 0.266 | 0.203 |
| COX5B_P10606_93_IVGCICEEDNTSVVWFWLHK (UniProt P10606) | -0.0412 | -0.064 |
| CSNK1A1_P48729_249_MSTPVEVLCK (UniProt P48729) | -0.234 | -0.0487 |
| CSE1L_P55060_344_NLFEDQNTLTSICEK (UniProt P55060) | -0.186 | -0.107 |
| CPSF3_Q9UKF6_345_ELFESWCTDK (UniProt Q9UKF6) | -0.0082 | 0.319 |
| CTBP2_P56545_60_DLATVAFCDAQSTQEIHEK (UniProt P56545) | -0.0727 | 0.155 |
| CPNE8_Q86YQ8_143_CGTIILTAEELNCCR (UniProt Q86YQ8) | 0.0235 | -0.436 |
| CTBP1_Q13363_312_DAPNLICTPHAAWYSEQASIEMR (UniProt Q13363) | -0.0203 | -0.149 |
| CST3_P01034_109_TQPNLDNCPFHDQPHLK (UniProt P01034) | -0.359 | -0.43 |
| CSNK1D_P48730_241_KMSTPIEVLCK (UniProt P48730) | -0.189 | -0.828 |
| CPSF4_O95639_82_KGDQCEFLHEYDMTK (UniProt O95639) | -0.24 | -0.283 |
| CRELD1_Q96HD1_229_CSGPEESNCLQCK (UniProt Q96HD1) | 0.126 | 0.0461 |
| CSK_P41240_422_NCWHLDAAMR (UniProt P41240) | 0.0895 | 0.247 |
| CPSF3_Q9UKF6_498_RNFNYHILSPCDLSNYTDLAMSTVK (UniProt Q9UKF6) | -0.121 | -0.947 |
| CRTAP_O75718_243_AFYECLAACEGSR (UniProt O75718) | -0.0148 | 0.256 |
| CSTF1_Q05048_296_CITTFEK (UniProt Q05048) | 0.116 | 0.181 |
| CPNE3_O75131_54_NCLNPQFSK (UniProt O75131) | -0.151 | -0.406 |
| CSTF2_P33240_150_LCVQNSPQEAR (UniProt P33240) | -0.0112 | -0.27 |
| CORO7_P57737_75_VAHLGCHSDLVTDLDFSPFDDFLLATGSADR (UniProt P57737) | 0.0991 | 0.122 |
| CTNNA1_P35221_772_TIADHCPDSACK (UniProt P35221) | -0.159 | -0.259 |
| CRYZ_Q08257_145_ALIHSACVK (UniProt Q08257) | 0.0366 | 0.247 |
| CPSF2_Q9P2I0_763_IGLEGCLCQDFYR (UniProt Q9P2I0) | 0.182 | 0.0962 |
| CPSF2_Q9P2I0_765_IGLEGCLCQDFYR (UniProt Q9P2I0) | 0.113 | -0.169 |
| CORO1C_Q9ULV4_456_DTICNQDER (UniProt Q9ULV4) | 0.113 | 0.144 |
| CPSF6_Q16630_159_ELHGQNPVVTPCNK (UniProt Q16630) | 0.0316 | -0.159 |

| Target | probe-labelled cysteine peptide fold change (10 µM) | probe-labelled cysteine peptide fold change (50 µM) |
| --- | --- | --- |
| CPSF2_Q9P2I0_311_HLSLCHGLSDLAR (UniProt Q9P2I0) | 0.175 | 0.0266 |
| CTNNA1_P35221_116_AAAGEFADDPCSSVK (UniProt P35221) | -0.0526 | 0.276 |
| CRKL_P46109_44_DSSTCPGDYVLSVSENSR (UniProt P46109) | 0.0857 | 0.0844 |
| CORO1C_Q9ULV4_39_VTWDSSFCAVNPR (UniProt Q9ULV4) | -0.158 | 0.202 |
| CPSF6_Q16630_476_VLISSLQDCLHGIESK (UniProt Q16630) | 0.221 | -0.0558 |
| CPNE3_O75131_249_SSPVEFECINEK (UniProt O75131) | -0.104 | -0.112 |
| CRTAP_O75718_247_AFYECLAACEGSR (UniProt O75718) | 0.403 | 0.476 |
| CORO7_P57737_325_QALAVMSCEVLR (UniProt P57737) | -0.0212 | -0.181 |
| CPD_O75976_720_ENSQMFQGRPCK (UniProt O75976) | -0.175 | -0.202 |
| CTIF_O43310_556_MLCPSESMLTR (UniProt O43310) | -0.353 | -0.427 |
| CTNNA2_P26232_322_LESIISGAALMADSSCTR (UniProt P26232) | 0.11 | 0.278 |
| CRIP1_P50238_56_TLTSGGHAEHEGKPYCNHPCYAAMFGPK (UniProt P50238) | -0.447 | -1.41 |
| CRELD1_Q96HD1_135_QQEAPDLFQWLCSDSLK (UniProt Q96HD1) | -0.0388 | 0.279 |
| CRTAP_O75718_317_NAAPCAVSYLLFDQNDK (UniProt O75718) | -0.0243 | 0.372 |
| CORO1A_P31146_345_RCEPIAMTVPR (UniProt P31146) | -0.00998 | -0.138 |
| CRIP1_P50238_56_PYCNHPCYAAMFGPK (UniProt P50238) | 0.123 | -0.154 |
| CPD_O75976_195_EGDCGFGDGGPSGASGR (UniProt O75976) | 0.18 | 0.211 |
| CTCF_P49711_497_CDQCDYACR (UniProt P49711) | -0.108 | 0.295 |
| CPVL_Q9H3G5_320_CTEPEDQLYYVK (UniProt Q9H3G5) | -0.128 | -0.131 |
| CTNND1_O60716_516_MEIVDHALHALTDEVIIPHSGWEREPNEDCKPR (UniProt O60716) | -0.133 | -0.0646 |
| CSE1L_P55060_842_KICAVGITK (UniProt P55060) | -0.141 | -0.665 |
| CRELD2_Q6UXH1_166_QGDGSCR (UniProt Q6UXH1) | -0.195 | -0.265 |
| CSE1L_P55060_272_SQICDNAALYAQK (UniProt P55060) | 0.168 | 0.267 |
| CSTF3_Q12996_422_HHVYVTAALMEYYCSK (UniProt Q12996) | 0.0714 | 0.482 |
| CSK_P41240_299_FSLDVCEAMEYLEGNNFVHR (UniProt P41240) | 0.105 | 0.216 |
| CORO1B_Q9BR76_345_CEPIVMTVPR (UniProt Q9BR76) | 0.0227 | -0.0517 |
| CORO1C_Q9ULV4_420_CDLISIPK (UniProt Q9ULV4) | -0.336 | -0.532 |

| Target | probe-labelled cysteine peptide fold change (10 µM) | probe-labelled cysteine peptide fold change (50 µM) |
| --- | --- | --- |
| CORO1B_Q9BR76_345_KCEPIVMTVPR (UniProt Q9BR76) | 0.0177 | -0.24 |
| CSDE1_O75534_657_FQLCVLGQNAQTMAYNITPLRR (UniProt O75534) | -0.163 | -0.129 |
| CSRP1_P21291_58_NLDSTTVAVHGEEIYCK (UniProt P21291) | 0.0278 | -0.263 |
| CORO2A_Q92828_25_ENCYDSVPITR (UniProt Q92828) | -0.212 | 0.057 |
| CORO1C_Q9ULV4_190_NGSLICTASK (UniProt Q9ULV4) | 0.105 | 0.0895 |
| CRYBG1_Q9Y4K1_503_GCVLPVSR (UniProt Q9Y4K1) | -0.327 | -0.294 |
| CORO1C_Q9ULV4_283_NMQEPIALHEMDTSNGVLLPFYDPDTSIIYLCGK (UniProt Q9ULV4) | 0.153 | -0.118 |
| CRTAP_O75718_273_DFYLSIADHYVEVLECK (UniProt O75718) | -0.146 | 1.08 |
| CREG1_O75629_147_HGFDPQSPLCVHIMLSGTVTK (UniProt O75629) | 0.0121 | 0.42 |
| CRYBG3_Q68DQ2_1502_SSLSDSLVCISEK (UniProt Q68DQ2) | -0.462 | -0.368 |
| CORO7_P57737_75_RVAHLGCHSDLVTDLDFSPFDDFLLATGSADR (UniProt P57737) | 0.465 | 0.469 |
| CPSF3_Q9UKF6_626_RLEIMLQDIFGEDCVSVK (UniProt Q9UKF6) | -0.0218 | 0.198 |
| CPSF3_Q9UKF6_655_TVECEEGSEDDESLR (UniProt Q9UKF6) | 0.0669 | 0.446 |
| CTNNA1_P35221_228_NVPILYTASQACLQHPDVAAYK (UniProt P35221) | 0.249 | 0.236 |
| CRTAP_O75718_84_DSEAFCHR (UniProt O75718) | -0.0976 | -0.0194 |
| CSDE1_O75534_464_EAEDGIIAYDDCGVK (UniProt O75534) | -0.255 | -0.122 |
| CSK_P41240_411_MDAPDGCPPAVYEVMK (UniProt P41240) | -0.00657 | -0.0602 |
| CTAGE5_O15320_579_GESSCDR (UniProt Q96PC5+O15320) | -0.576 | 0.109 |
| CTNNB1_P35222_520_NLALCPANHAPLR (UniProt P35222) | -0.273 | 1.23 |
| CORO1B_Q9BR76_195_LDSLHPDLIYNVSWNHNGSLFCSACK (UniProt Q9BR76) | 0.204 | -0.00526 |
| CPOX_P36551_304_EACDQHGPDLYPK (UniProt P36551) | -0.0942 | -0.0866 |
| CPPED1_Q9BRF8_197_HCQHAIVFQHIPLFLESIDEDDDYYFNLSK (UniProt Q9BRF8) | -0.00915 | 0.0877 |
| CSTF2T_Q9H0L4_150_LCVQNSHQEAR (UniProt Q9H0L4) | 0.0738 | 0.0145 |
| CSTF1_Q05048_310_AHDGAEVCSAIFSK (UniProt Q05048) | 0.0734 | 0.151 |
| CRELD1_Q96HD1_343_QMEGICVK (UniProt Q96HD1) | -0.0756 | -0.108 |
